Earlier results in US12227511B2, “Bicyclic compounds as kinase modulators, methods and uses thereof” (Agency for Science, Technology and Research, priority 2018, dated 2025).
At least one structure is not confirmed: it was looked up by name or label, or the drawing left a doubt.

Tested on: hepatocellular carcinoma (HCC)
Conditions: cited from earlier work

## COc1cc2nccc(Oc3ccc(NC(=O)C4(C(=O)Nc5ccc(F)cc5)CC4)cc3)c2cc1OC [Cabozantinib]
95% CI: 0.36, 0.52, p<0.001
  HR for progression free survival vs placebo: 0.44
95% CI: 0.63, 0.92, p=0.0049
  HR for overall survival vs placebo: 0.76
95% CI: 2.3, 6.0
  Objective response rate (ORR): 4%
95% CI: 9.1,12.0
  median overall survival (OS): 10.2 months
HCC patients previously on Sorafenib, Child Pugh Class A
  median progression free survival (PFS): 5.2 months
